According to PMC5727386:
No constants are given. Whether binding was seen depends on the method and setting. Some binding calls cover weakened binding; strength is not graded here. Values belong to the binder of their own block, whether it stands above or below them.

Legend:
[1] = target: T1, Bcr-Abl PH domain with internal deletion (PHΔ770-829) (UniProt P11274); test: SEC; PH and monobody mixed 1:2 (PH:monobody) before injection; Superdex 75 16/600 for the full-length PH domain, Superdex 75 10/300 for PHΔ770-829; both purified
T1 sequence: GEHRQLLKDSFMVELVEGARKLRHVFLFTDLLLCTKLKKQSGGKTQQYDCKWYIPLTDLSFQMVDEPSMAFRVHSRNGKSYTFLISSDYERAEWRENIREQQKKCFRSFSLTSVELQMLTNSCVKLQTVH

[2] = target: T2, Bcr-Abl PH domain (residues 704-893) (UniProt P11274); test: as above
T2 sequence: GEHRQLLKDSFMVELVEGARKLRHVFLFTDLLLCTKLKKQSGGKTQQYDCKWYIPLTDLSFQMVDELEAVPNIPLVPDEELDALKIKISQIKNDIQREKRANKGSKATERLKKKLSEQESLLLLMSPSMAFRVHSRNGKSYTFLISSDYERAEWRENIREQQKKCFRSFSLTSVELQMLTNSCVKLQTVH

[3] = target: Bcr-Abl DH-PH tandem domain (residues 487-893) (UniProt P11274); test: SEC-MALS; analysis of sample homogeneity and oligomeric state of the purified constructs; 0.4 mL/min; both purified
[4] = target: T3, Bcr-Abl DH domain (residues 487-702); test: crystal structure; complex of domain and monobody, sitting drop at 291 K; 1.65 Å; both purified
T3 sequence: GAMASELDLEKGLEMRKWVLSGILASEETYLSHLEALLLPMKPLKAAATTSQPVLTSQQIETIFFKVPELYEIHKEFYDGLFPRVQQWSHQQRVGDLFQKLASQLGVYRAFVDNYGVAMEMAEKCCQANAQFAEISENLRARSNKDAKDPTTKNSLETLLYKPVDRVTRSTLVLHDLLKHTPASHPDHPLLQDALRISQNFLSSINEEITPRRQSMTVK

[5] = target: T3, Bcr-Abl DH domain (residues 487-702); test: NMR titration; [15N,1H]-TROSY of 15N-labelled DH domain alone or in complex with unlabelled monobody; chemical shift perturbations; both purified

- binding [1]: binds
- binding [2]: binds
B1: monobody Mb(Bcr-PH_2), purified (designed binder)
chain: VSSVPTKLEVVAATPTSLLISWDAPAVTVVFYVITYGETGGNSPVQEFTVPGSKSTATISGLKPGVDYTITVYAEYYGYTSSPISINYRT

- binding [1]: binds
- binding [2]: binds
B4: monobody Mb(Bcr-PH_3), purified (designed binder)
chain: VSSVPTKLEVVAATPTSLLISWDAPAVTVVFYVITYGETGGNSPVQEFTVPGSKSTATISGLKPGVDYTITVYAEYYGYSGWQSPISINYRT

The next lines start with the binder.

B2: Bcr-Abl DH-PH tandem domain (residues 487-893) (domain or fragment, UniProt P11274 487-893)
chain: ASELDLEKGLEMRKWVLSGILASEETYLSHLEALLLPMKPLKAAATTSQPVLTSQQIETIFFKVPELYEIHKEFYDGLFPRVQQWSHQQRVGDLFQKLASQLGVYRAFVDNYGVAMEMAEKCCQANAQFAEISENLRARSNKDAKDPTTKNSLETLLYKPVDRVTRSTLVLHDLLKHTPASHPDHPLLQDALRISQNFLSSINEEITPRRQSMTVKKGEHRQLLKDSFMVELVEGARKLRHVFLFTDLLLCTKLKKQSGGKTQQYDCKWYIPLTDLSFQMVDELEAVPNIPLVPDEELDALKIKISQIKNDIQREKRANKGSKATERLKKKLSEQESLLLLMSPSMAFRVHSRNGKSYTFLISSDYERAEWRENIREQQKKCFRSFSLTSVELQMLTNSCVKLQTVH
- binding [3]: no binding

B3: monobody Mb(Bcr-DH_4), purified (designed binder)
chain: VSSVPTKLEVVAATPTSLLISWDAPAVTVDLYVITYGETGGNSPVQEFEVPGSKSTATISGLKPGVDYTITVYAGSYAYEYYWGPSPISINYRT
- binding [4]: binds
- binding [5]: binds
